Data: the supplement of paper PMC10849652
The other results are listed elsewhere or left out.

The chains behind the UniProt entries cited, without tags or fusion partners. Where a name states a change or a piece, a line headed by the entry shows the natural chain unless it says otherwise.
UniProt Q9ULM6, whole entry, looked up: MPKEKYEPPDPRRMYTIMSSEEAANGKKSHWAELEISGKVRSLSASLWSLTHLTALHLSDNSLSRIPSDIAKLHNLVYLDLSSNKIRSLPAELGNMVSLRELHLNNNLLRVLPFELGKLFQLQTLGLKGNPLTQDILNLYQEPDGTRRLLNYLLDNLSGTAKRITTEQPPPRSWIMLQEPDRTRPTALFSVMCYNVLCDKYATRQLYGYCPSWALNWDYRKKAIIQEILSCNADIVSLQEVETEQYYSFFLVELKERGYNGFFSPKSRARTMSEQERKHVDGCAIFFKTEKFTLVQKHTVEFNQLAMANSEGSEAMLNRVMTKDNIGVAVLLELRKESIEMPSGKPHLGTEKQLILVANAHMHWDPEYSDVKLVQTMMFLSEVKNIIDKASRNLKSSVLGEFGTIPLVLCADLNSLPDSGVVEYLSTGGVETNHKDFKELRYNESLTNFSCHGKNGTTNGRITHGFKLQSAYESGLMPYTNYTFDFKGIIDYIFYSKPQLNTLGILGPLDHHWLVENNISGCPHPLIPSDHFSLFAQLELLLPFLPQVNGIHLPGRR
UniProt P57737: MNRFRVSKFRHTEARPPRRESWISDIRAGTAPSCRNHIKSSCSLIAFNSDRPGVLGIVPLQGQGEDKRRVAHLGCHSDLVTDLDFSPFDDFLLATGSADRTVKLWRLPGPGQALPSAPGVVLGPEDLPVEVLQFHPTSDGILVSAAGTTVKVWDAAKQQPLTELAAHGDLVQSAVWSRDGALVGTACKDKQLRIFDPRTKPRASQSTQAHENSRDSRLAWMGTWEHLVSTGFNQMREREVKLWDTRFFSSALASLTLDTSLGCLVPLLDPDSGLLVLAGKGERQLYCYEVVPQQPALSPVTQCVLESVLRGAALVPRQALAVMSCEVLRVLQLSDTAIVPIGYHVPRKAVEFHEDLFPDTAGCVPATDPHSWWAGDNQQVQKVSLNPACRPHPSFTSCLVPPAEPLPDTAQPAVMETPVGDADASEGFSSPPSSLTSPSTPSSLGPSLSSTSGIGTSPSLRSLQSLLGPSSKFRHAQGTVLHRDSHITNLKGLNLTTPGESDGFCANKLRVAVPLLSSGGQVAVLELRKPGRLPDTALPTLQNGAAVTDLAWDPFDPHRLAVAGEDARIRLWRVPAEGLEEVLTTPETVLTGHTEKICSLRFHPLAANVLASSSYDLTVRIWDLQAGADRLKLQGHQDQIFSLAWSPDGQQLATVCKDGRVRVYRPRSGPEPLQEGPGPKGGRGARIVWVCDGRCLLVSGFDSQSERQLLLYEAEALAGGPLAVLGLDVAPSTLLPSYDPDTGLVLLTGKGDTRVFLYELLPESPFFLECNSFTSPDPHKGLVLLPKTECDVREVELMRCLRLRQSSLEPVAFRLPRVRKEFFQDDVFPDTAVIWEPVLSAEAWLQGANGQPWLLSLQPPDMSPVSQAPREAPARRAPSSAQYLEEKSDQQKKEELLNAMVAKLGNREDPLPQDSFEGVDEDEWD
UniProt Q99439: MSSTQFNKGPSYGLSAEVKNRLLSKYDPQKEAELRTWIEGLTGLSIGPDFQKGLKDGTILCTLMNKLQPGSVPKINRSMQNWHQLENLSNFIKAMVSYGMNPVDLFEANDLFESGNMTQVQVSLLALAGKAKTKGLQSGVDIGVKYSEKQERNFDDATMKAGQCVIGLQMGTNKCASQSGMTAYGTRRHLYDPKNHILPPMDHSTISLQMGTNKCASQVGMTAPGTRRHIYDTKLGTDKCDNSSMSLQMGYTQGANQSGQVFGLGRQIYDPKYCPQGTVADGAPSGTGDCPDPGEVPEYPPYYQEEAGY
UniProt P61201: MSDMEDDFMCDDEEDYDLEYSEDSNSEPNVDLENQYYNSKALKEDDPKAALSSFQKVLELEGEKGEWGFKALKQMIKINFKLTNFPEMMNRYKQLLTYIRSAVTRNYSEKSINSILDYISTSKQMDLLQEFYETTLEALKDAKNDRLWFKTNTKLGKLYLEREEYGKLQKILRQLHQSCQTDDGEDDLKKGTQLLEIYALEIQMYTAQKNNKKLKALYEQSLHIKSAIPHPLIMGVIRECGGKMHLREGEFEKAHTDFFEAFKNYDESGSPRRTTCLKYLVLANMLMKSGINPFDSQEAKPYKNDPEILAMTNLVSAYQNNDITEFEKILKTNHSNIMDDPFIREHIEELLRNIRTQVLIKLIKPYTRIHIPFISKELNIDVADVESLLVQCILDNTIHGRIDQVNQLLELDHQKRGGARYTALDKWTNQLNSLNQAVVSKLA
UniProt P13073, whole entry, looked up: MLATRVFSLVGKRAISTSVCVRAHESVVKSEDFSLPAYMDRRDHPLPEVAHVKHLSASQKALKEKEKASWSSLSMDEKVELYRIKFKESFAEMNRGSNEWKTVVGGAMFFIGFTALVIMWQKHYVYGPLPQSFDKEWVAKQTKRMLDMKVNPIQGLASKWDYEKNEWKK
UniProt A5YKK6, whole entry, looked up: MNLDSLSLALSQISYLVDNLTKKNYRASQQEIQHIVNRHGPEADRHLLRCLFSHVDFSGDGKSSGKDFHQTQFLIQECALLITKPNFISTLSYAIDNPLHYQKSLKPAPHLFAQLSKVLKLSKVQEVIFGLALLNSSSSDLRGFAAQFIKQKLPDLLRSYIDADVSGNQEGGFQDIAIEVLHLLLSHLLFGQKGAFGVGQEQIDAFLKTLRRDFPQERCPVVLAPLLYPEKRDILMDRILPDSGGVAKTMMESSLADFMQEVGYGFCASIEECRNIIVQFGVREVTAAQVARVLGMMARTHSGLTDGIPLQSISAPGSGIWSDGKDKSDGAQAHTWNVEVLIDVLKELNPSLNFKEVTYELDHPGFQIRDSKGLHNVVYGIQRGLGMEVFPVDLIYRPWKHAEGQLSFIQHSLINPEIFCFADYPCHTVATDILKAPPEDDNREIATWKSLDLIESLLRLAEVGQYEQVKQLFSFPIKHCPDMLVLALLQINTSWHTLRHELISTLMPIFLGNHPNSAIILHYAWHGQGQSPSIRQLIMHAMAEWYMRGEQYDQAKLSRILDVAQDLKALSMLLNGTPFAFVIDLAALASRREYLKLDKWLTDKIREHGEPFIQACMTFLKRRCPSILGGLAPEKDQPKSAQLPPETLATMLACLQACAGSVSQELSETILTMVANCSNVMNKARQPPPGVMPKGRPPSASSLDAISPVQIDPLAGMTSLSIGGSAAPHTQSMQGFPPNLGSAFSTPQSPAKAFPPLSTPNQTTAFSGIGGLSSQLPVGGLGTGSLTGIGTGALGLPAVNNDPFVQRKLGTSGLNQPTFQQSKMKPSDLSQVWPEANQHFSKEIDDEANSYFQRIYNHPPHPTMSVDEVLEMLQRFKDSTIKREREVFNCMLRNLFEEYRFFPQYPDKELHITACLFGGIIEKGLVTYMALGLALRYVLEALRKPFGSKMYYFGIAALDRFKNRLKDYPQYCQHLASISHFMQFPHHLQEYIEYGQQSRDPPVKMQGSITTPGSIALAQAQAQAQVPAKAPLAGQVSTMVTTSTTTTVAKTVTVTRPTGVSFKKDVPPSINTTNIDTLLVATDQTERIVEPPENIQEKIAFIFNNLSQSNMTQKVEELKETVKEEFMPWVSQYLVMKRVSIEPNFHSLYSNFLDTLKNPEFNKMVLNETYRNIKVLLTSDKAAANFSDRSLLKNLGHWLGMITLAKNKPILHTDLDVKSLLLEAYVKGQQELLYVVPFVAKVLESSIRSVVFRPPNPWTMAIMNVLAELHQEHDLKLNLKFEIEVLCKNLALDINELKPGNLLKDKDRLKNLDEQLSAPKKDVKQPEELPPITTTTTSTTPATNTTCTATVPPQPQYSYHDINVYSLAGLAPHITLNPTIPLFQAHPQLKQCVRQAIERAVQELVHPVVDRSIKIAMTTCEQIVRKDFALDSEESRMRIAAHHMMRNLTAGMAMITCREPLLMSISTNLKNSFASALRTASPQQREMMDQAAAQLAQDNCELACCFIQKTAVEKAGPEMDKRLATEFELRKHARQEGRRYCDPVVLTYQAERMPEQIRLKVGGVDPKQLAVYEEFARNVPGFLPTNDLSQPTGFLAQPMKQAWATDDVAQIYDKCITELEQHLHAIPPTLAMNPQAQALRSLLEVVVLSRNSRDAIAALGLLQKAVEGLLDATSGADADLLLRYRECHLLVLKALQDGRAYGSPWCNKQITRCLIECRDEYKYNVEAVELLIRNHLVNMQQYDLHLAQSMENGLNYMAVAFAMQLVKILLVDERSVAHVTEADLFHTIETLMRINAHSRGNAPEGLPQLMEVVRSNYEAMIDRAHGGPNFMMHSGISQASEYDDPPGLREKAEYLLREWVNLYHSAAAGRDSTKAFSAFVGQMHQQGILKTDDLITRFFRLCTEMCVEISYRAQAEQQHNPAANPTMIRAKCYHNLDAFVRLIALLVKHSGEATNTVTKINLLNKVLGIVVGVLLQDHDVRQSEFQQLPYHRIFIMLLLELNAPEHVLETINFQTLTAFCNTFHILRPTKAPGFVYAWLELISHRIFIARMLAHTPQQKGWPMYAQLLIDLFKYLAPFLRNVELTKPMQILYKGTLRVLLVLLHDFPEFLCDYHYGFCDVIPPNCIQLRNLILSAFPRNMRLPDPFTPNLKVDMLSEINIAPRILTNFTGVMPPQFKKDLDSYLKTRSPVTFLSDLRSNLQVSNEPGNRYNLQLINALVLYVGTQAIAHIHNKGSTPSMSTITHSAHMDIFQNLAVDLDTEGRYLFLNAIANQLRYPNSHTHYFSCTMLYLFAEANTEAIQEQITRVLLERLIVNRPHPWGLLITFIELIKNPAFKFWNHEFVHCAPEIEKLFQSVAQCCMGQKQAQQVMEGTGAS
UniProt P12074, whole entry, looked up: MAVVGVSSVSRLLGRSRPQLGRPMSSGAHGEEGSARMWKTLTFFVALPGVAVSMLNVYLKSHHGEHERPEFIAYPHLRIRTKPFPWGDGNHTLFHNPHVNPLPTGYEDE
UniProt P35606: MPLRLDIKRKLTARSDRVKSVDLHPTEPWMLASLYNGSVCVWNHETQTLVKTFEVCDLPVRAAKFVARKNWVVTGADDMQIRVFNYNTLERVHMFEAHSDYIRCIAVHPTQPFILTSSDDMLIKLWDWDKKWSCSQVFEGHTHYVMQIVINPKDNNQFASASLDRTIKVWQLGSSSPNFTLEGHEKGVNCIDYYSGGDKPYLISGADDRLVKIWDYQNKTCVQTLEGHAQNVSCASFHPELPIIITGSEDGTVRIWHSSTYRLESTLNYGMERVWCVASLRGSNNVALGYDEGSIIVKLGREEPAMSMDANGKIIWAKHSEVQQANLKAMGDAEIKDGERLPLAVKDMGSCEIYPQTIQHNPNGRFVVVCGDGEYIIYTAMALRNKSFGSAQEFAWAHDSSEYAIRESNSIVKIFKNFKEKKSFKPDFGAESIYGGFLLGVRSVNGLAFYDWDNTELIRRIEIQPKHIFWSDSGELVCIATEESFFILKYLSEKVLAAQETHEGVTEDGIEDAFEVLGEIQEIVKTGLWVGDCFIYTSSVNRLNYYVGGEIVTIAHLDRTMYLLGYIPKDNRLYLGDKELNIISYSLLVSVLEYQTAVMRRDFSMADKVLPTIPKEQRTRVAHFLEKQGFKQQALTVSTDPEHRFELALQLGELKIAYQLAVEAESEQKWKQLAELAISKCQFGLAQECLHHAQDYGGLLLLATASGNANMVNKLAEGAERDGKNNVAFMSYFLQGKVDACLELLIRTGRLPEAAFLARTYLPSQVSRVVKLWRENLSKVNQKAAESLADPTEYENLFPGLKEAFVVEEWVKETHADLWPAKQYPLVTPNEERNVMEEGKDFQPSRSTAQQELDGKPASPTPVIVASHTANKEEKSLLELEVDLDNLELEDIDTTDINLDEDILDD
UniProt Q92828: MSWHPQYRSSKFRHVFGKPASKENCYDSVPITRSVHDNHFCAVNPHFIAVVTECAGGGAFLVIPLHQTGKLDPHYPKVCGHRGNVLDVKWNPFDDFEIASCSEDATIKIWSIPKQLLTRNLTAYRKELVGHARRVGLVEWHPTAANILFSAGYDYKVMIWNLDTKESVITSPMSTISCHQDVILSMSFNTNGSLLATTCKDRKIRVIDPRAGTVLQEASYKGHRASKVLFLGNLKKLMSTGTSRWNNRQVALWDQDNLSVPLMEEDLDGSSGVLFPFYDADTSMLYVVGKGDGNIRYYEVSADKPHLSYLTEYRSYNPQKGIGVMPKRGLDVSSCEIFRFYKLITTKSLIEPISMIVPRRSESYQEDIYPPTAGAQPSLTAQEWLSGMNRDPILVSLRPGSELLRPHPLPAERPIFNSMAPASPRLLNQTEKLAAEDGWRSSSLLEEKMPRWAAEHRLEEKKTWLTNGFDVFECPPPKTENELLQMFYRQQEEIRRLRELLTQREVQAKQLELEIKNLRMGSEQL
UniProt P20674, whole entry, looked up: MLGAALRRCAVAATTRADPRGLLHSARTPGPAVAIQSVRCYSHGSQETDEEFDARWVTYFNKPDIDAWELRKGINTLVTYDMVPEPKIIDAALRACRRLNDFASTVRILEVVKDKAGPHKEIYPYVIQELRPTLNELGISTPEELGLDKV

Assays:
Assay in all cases: log2 fold change, soluble protein after heating vs DMSO (PISA); higher = thermal stabilisation; K562 lysate, 10 uM; active = over 0.2 and 3.5 SD of the protein, either way, in both replicates (recomputed)
vemurafenib = compound: CCCS(=O)(=O)Nc1ccc(F)c(C(=O)c2c[nH]c3ncc(-c4ccc(Cl)cc4)cc23)c1F [vemurafenib]
In short: (§1)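 Log-two fold change in thermal stability relative to solvent controls is reported from duplicates. For each sample, crude K562 extract from dounce-homogenised pellets in PBS pH 7.4 with 1 mM MgCl2, at 1 mg/mL protein, was treated with 10 μM compound for 30 min. Aliquots heated for 3 min across 48°C-58°C were pooled, brought to 0.5% NP-40 at 4°C and cleared at 21,000xg for 90 min. The supernatant was quantified by TMTpro 16plex LC-MS/MS with channel sums equalised.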

[1] = compound: CCCS(=O)(=O)Nc1ccc(F)c(C(=O)c2c[nH]c3ncc(Cl)cc23)c1F
In short: as §1

barasertib = compound: CCN(CCCOc1ccc2c(Nc3cc(CC(=O)Nc4cccc(F)c4)[nH]n3)ncnc2c1)CCOP(=O)(O)O [barasertib]
In short: as §1

[2] = compound: CC[C@@H]1C(=O)N(C)c2cnc(Nc3ccc(C(=O)NC4CCN(C)CC4)cc3OC)nc2N1C1CCCC1
In short: as §1

volasertib = compound: CC[C@@H]1C(=O)N(C)c2cnc(Nc3ccc(C(=O)N[C@H]4CC[C@H](N5CCN(CC6CC6)CC5)CC4)cc3OC)nc2N1C(C)C [volasertib]
In short: as §1

[3] = compound: CCn1c(C(=O)N(C2CC2)C2CC2)cc2c3c(ncn3C)c(Nc3cc(C)n(C)n3)nc21
In short: as §1

[4] = compound: CCn1cc(-c2ccnc3[nH]c(-c4cccc(CN(C)C)c4)cc23)c(-c2ccc(NC(=O)N(C)C)cc2)n1
In short: as §1

[5] = compound: CN1CCC(CNc2ccc3ncc(-c4cccc(OC(F)(F)F)c4)n3n2)CC1
In short: as §1

saracatinib = compound: CN1CCN(CCOc2cc(OC3CCOCC3)c3c(Nc4c(Cl)ccc5c4OCO5)ncnc3c2)CC1 [saracatinib]
In short: as §1

sotrastaurin = compound: CN1CCN(c2nc(C3=C(c4c[nH]c5ccccc45)C(=O)NC3=O)c3ccccc3n2)CC1 [sotrastaurin]
In short: as §1

alvocidib = compound: CN1CC[C@H](c2c(O)cc(O)c3c(=O)cc(-c4ccccc4Cl)oc23)[C@H](O)C1 [alvocidib]
In short: as §1

Tubastatin A = compound: CN1CCc2c(c3ccccc3n2Cc2ccc(C(=O)NO)cc2)C1 [Tubastatin A]
In short: as §1

[6] = compound: CNC(=O)C1=CC=CC=C1NC2=NC(=NC=C2Cl)NC3=C(C=C(C=C3)N4CCOCC4)OC
In short: as §1

defactinib = compound: CNC(=O)c1ccc(Nc2ncc(C(F)(F)F)c(NCc3nccnc3N(C)S(C)(=O)=O)n2)cc1 [defactinib]
In short: as §1

[7] = compound: CNc1nc(-c2ccc3c(N)n[nH]c3c2)cc(N2C[C@@H](C(=O)NC3CCCCC3)CC[C@H]2C)n1
In short: as §1

encorafenib = compound: COC(=O)N[C@@H](C)CNc1nccc(-c2cn(C(C)C)nc2-c2cc(Cl)cc(NS(C)(=O)=O)c2F)n1 [encorafenib]
In short: as §1

[8] = compound: COC(=O)[C@H](CCSC)NC(=O)C1=C(C=C(C=C1)NC[C@H](CS)N)C2=CC=CC=C2
In short: as §1

alisertib = compound: COc1cc(Nc2ncc3c(n2)-c2ccc(Cl)cc2C(c2c(F)cccc2OC)=NC3)ccc1C(=O)O [alisertib]
In short: as §1

[9] = compound: COc1cc2nc(-c3cc(F)ccc3O)nc(N[C@@H]3CNC[C@H]3C(C)(C)O)c2cc1OC
In short: as §1

gefitinib = compound: COc1cc2ncnc(Nc3ccc(F)c(Cl)c3)c2cc1OCCCN1CCOCC1 [gefitinib]
In short: as §1

Measured: log2 fold change

CNOT6 (UniProt Q9ULM6)
inactive: vemurafenib -0.029 | [1] -0.003 | barasertib 0.088 | [2] 0.028 | volasertib -0.11 | [3] 0.002 | [4] -0.03 | [5] 0.002 | saracatinib -0.001 | sotrastaurin 0.025 | alvocidib 0.016 | Tubastatin A -0.114 | [6] 0.024 | defactinib 0.034 | [7] -0.039 | encorafenib 0.01 | [8] 0.132 | alisertib -0.087 | [9] 0.177 | gefitinib -0.024

CORO7 isoform 3 (UniProt P57737)
inactive: vemurafenib 0.031 | [1] 0.013 | barasertib 0.008 | [2] -0.042 | volasertib -0.01 | [3] 0.016 | [4] 0.044 | [5] -0.175 | saracatinib 0.004 | sotrastaurin 0.008 | alvocidib 0.023 | Tubastatin A -0.087 | [6] -0.008 | defactinib 0.028 | [7] 0.007 | encorafenib -0.008 | [8] 0.114 | alisertib 0.007 | [9] -0.069 | gefitinib -0.047

CPD (UniProt O75976)
inactive: vemurafenib 0.006 | [1] -0.004 | barasertib 0.001 | [2] 0.173 | volasertib 0.012 | [3] -0.084 | [4] -0.12 | [5] 0.048 | saracatinib 0.018 | sotrastaurin -0.003 | alvocidib -0.068 | Tubastatin A 0.096 | [6] 0.027 | defactinib 0.022 | [7] 0.13 | encorafenib -0.023 | [8] -0.016 | alisertib 0.039 | [9] 0.008 | gefitinib -0.011

CNN2 (UniProt Q99439)
inactive: vemurafenib 0.003 | [1] 0.012 | barasertib -0.016 | [2] 0.041 | volasertib 0.024 | [3] -0.023 | [4] -0.034 | [5] 0.016 | saracatinib -0.039 | sotrastaurin -0.022 | alvocidib -0.037 | Tubastatin A -0.003 | [6] 0.003 | defactinib -0.041 | [7] 0.081 | encorafenib -0.006 | [8] -0.026 | alisertib -0.006 | [9] 0.007 | gefitinib 0

COPS2 isoform 2 (UniProt P61201)
inactive: vemurafenib -0.028 | [1] -0.016 | barasertib 0.009 | [2] -0.011 | volasertib 0.009 | [3] 0.007 | [4] 0.026 | [5] -0.012 | saracatinib 0.007 | sotrastaurin -0.014 | alvocidib 0.025 | Tubastatin A 0.017 | [6] 0.01 | defactinib -0.008 | [7] 0.006 | encorafenib 0.012 | [8] -0.014 | alisertib -0.001 | [9] 0 | gefitinib 0.009

COX4I1 (UniProt P13073)
inactive: vemurafenib 0.026 | [1] -0.012 | barasertib -0.012 | [2] 0.05 | volasertib 0.041 | [3] -0.012 | [4] -0.054 | [5] 0.044 | saracatinib 0.03 | sotrastaurin -0.002 | alvocidib -0.009 | Tubastatin A 0.046 | [6] 0.001 | defactinib 0.006 | [7] 0.043 | encorafenib -0.002 | [8] -0.013 | alisertib 0.032 | [9] 0.004 | gefitinib -0.051

CNOT1 (UniProt A5YKK6)
inactive: vemurafenib -0.007 | [1] 0.008 | barasertib 0.029 | [2] -0.033 | volasertib -0.03 | [3] 0.006 | [4] -0.047 | [5] 0.037 | saracatinib 0.003 | sotrastaurin 0.016 | alvocidib 0.007 | Tubastatin A -0.06 | [6] 0.006 | defactinib 0 | [7] -0.034 | encorafenib -0.005 | [8] 0.038 | alisertib 0 | [9] 0.016 | gefitinib -0.004

Random excerpt: 2 entries already listed.
CPD (UniProt O75976)
inactive: vemurafenib 0.006 | [1] -0.004 | barasertib 0.001 | [2] 0.173 | volasertib 0.012 | [3] -0.084 | [4] -0.12 | [5] 0.048 | saracatinib 0.018 | sotrastaurin -0.003 | alvocidib -0.068 | Tubastatin A 0.096 | [6] 0.027 | defactinib 0.022 | [7] 0.13 | encorafenib -0.023 | [8] -0.016 | alisertib 0.039 | [9] 0.008 | gefitinib -0.011

COX4I1 (UniProt P13073)
inactive: vemurafenib 0.026 | [1] -0.012 | barasertib -0.012 | [2] 0.05 | volasertib 0.041 | [3] -0.012 | [4] -0.054 | [5] 0.044 | saracatinib 0.03 | sotrastaurin -0.002 | alvocidib -0.009 | Tubastatin A 0.046 | [6] 0.001 | defactinib 0.006 | [7] 0.043 | encorafenib -0.002 | [8] -0.013 | alisertib 0.032 | [9] 0.004 | gefitinib -0.051

(further entries)

COX6A1 (UniProt P12074)
inactive: vemurafenib 0.024 | [1] -0.018 | barasertib 0.102 | [2] 0.071 | volasertib -0.003 | [3] 0.039 | [4] -0.377 | [5] 0.033 | saracatinib -0.036 | sotrastaurin 0.175 | alvocidib 0.006 | Tubastatin A 0.009 | [6] 0.14 | defactinib 0.023 | [7] 0.124 | encorafenib -0.002 | [8] 0.03 | alisertib -0.291 | [9] 0.037 | gefitinib 0.128

COPB2 (UniProt P35606)
inactive: vemurafenib -0.007 | [1] 0.022 | barasertib 0.001 | [2] -0.006 | volasertib 0.001 | [3] -0.008 | [4] -0.062 | [5] 0.037 | saracatinib -0.007 | sotrastaurin -0.01 | alvocidib -0.01 | Tubastatin A 0.041 | [6] -0.003 | defactinib -0.028 | [7] -0.006 | encorafenib 0.016 | [8] -0.021 | alisertib 0.006 | [9] 0.002 | gefitinib -0.01

CORO2A (UniProt Q92828)
inactive: vemurafenib -0.019 | [1] 0.02 | barasertib 0.029 | [2] 0.002 | volasertib -0.022 | [3] 0 | [4] 0.018 | [5] -0.164 | saracatinib -0.015 | sotrastaurin 0.011 | alvocidib 0.087 | Tubastatin A -0.097 | [6] -0.001 | defactinib -0.021 | [7] 0.016 | encorafenib 0.008 | [8] 0.009 | alisertib 0.018 | [9] 0.003 | gefitinib -0.011

CORO1C isoform 3 (UniProt Q9ULV4)
inactive: vemurafenib -0.014 | [1] -0.01 | barasertib -0.035 | [2] 0.024 | volasertib 0.008 | [3] -0.016 | [4] -0.006 | [5] 0.016 | saracatinib -0.009 | sotrastaurin 0.008 | alvocidib -0.015 | Tubastatin A 0.056 | [6] -0.013 | defactinib 0.011 | [7] 0 | encorafenib -0.005 | [8] -0.02 | alisertib -0.02 | [9] -0.008 | gefitinib 0.019

CNOT10 (UniProt Q9H9A5)
inactive: vemurafenib 0.04 | [1] -0.01 | barasertib 0.012 | [2] 0.025 | volasertib 0 | [3] -0.036 | [4] -0.028 | [5] 0.022 | saracatinib 0.02 | sotrastaurin 0.024 | alvocidib 0.017 | Tubastatin A -0.043 | [6] 0.025 | defactinib 0.018 | [7] 0.096 | encorafenib 0.014 | [8] 0.072 | alisertib 0.012 | [9] 0 | gefitinib 0.012

CNNM4 (UniProt Q6P4Q7)
inactive: vemurafenib 0.02 | [1] 0.024 | barasertib 0.025 | [2] -0.308 | volasertib -0.025 | [3] 0.064 | [4] 0.12 | [5] 0.129 | saracatinib -0.003 | sotrastaurin -0.023 | alvocidib 0.064 | Tubastatin A 0.013 | [6] 0.043 | defactinib -0.018 | [7] 0.029 | encorafenib 0.023 | [8] -0.047 | alisertib 0.029 | [9] -0.158 | gefitinib 0.181

COPS3 (UniProt Q9UNS2)
inactive: vemurafenib 0.025 | [1] 0.009 | barasertib 0.008 | [2] 0.054 | volasertib 0.019 | [3] -0.044 | [4] -0.039 | [5] 0.07 | saracatinib -0.003 | sotrastaurin -0.012 | alvocidib -0.033 | Tubastatin A 0.024 | [6] -0.019 | defactinib -0.015 | [7] 0.005 | encorafenib 0.001 | [8] -0.037 | alisertib -0.036 | [9] 0.006 | gefitinib 0.014

CPT1A (UniProt P50416)
inactive: vemurafenib 0.024 | [1] 0.035 | barasertib 0.048 | [2] 0.038 | volasertib 0.032 | [3] -0.018 | [4] 0 | [5] -0.137 | saracatinib -0.004 | sotrastaurin -0.014 | Tubastatin A 0.261 | [6] 0.004 | defactinib -0.053 | [7] 0.113 | encorafenib 0.036 | [8] 0.078 | alisertib -0.014 | [9] -0.051 | gefitinib 0.031
active: alvocidib 0.407

COX5A (UniProt P20674)
inactive: vemurafenib -0.022 | [1] -0.044 | barasertib 0.054 | [2] 0.049 | volasertib 0.048 | [3] 0.046 | [4] 0.198 | [5] -0.182 | saracatinib 0.016 | sotrastaurin -0.003 | alvocidib 0.226 | Tubastatin A 0.079 | [6] 0.117 | defactinib 0.14 | [7] 0.011 | encorafenib -0.005 | [8] -0.071 | alisertib 0.028 | [9] -0.036 | gefitinib -0.208
